According to PMC8384837:
Where a chain is given by its changes, count along the chain named. Some of the results follow. For some of these results: At the low end of the ranking, values are background and their order means little. For some of these results: The source does not settle which construct or isoform was used.

How the values were obtained:
Settings in all cases: yeast three-hybrid, YBZ-1, SC-Leu-His + 0.5 mM 3-AT, 4 days
[1] = molecular target: T1, PUM1 PUF domain R1-QFR R2-VFQ R7-NPG S863Q + R864F + Q867R + N899V + Y900F + S1079N + N1080P + E1083G (UniProt Q14671)
T1 sequence: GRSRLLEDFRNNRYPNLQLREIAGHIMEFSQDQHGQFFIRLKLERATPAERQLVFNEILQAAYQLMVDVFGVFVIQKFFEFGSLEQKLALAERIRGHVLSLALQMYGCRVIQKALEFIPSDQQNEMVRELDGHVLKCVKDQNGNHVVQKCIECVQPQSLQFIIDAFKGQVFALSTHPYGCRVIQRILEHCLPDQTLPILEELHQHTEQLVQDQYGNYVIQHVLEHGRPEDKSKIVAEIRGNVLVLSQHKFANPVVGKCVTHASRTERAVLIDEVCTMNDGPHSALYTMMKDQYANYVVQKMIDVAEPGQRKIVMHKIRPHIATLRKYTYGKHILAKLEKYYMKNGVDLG

[2] = molecular target: T2, PUM1 PUF domain R2-VFQ R3-THE R4-TFR N899V + Y900F + C935T + R936H + Q939E + N971T + H972F + Q975R (UniProt Q14671)
T2 sequence: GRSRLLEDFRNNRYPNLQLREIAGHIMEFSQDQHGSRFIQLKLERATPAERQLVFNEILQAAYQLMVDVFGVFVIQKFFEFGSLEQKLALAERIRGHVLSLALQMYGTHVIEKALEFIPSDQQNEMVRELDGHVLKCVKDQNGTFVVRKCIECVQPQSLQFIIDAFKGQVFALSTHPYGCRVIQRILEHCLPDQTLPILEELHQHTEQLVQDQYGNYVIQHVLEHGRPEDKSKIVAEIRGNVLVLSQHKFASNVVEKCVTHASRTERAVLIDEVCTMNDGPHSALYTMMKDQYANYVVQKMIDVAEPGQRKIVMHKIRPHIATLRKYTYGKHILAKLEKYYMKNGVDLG

[3] = molecular target: T3, PUM1 PUF domain R3-THE R4-TFR R7-NPG C935T + R936H + Q939E + N971T + H972F + Q975R + S1079N + N1080P + E1083G (Homo sapiens) (UniProt Q14671)
T3 sequence: T2 sequence with V72N, F73Y, S252N, N253P, E256G

[4] = molecular target: T4, PUM1 PUF domain R5-PHQ R6-SWD C1007P + R1008H + N1043S + Y1044W + Q1047D (UniProt Q14671)
T4 sequence: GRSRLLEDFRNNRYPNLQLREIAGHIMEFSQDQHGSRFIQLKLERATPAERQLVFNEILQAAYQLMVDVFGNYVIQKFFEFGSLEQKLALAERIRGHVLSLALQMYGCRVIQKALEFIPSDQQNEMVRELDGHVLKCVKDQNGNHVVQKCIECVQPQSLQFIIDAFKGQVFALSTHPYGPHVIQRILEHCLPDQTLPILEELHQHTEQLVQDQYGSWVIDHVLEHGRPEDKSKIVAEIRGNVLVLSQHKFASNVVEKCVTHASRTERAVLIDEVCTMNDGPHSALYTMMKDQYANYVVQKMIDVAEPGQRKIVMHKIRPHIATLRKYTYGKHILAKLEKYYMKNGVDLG

[5] = molecular target: T5, PUM1 PUF domain R3-THE R4-TFR R7-NPG C935T + R936H + Q939E + N971T + H972F + Q975R + S1079N + N1080P + E1083G (UniProt Q14671)
T5 sequence: T2 sequence with V72N, F73Y, S252N, N253P, E256G

[6] = molecular target: T6, PUM1 PUF domain R3-THE R4-TFR C935T + R936H + Q939E + N971T + H972F + Q975R (UniProt Q14671)
T6 sequence: T2 sequence with V72N, F73Y

| Sequence | binding signal (log2 enrichment (interaction score)) [1] | binding signal (log2 enrichment (interaction score)) [2] | binding signal (log2 enrichment (interaction score)) [3] | binding signal (log2 enrichment (interaction score)) [4] | binding signal (log2 enrichment (interaction score)) [5] | binding signal (log2 enrichment (interaction score)) [6] |
| --- | --- | --- | --- | --- | --- | --- |
| GGCUAGAACUAGUGGAUCCCCCGGCGCCCGGCGGCUCGAGCCCGGGUAAGUACAGACAGUCUGCAUGCCGCCGGGCGCCAUGCCUGCAGGUCGACUCUAGAAAACAUG | -6.31 | -4.94 | -0.82 | – | – | – |
| GGCUAGAACUAGUGGAUCCCCCGGCGCCCGGCGGCUCGAGCCCGGGUAAGUUUAAAAGGUCUGCAUGCCGCCGGGCGCCAUGCCUGCAGGUCGACUCUAGAAAACAUG | -4.5 | -5.59 | -0.78 | -7.25 | – | – |
| GGCUAGAACUAGUGGAUCCCCCGGCGCCCGGCGGCUCGAGCCCGGGUAAGAGGAAACUGUCUGCAUGCCGCCGGGCGCCAUGCCUGCAGGUCGACUCUAGAAAACAUG | -5.66 | -5.55 | -1.47 | < -7.62 | – | – |
| GGCUAGAACUAGUGGAUCCCCCGGCGCCCGGCGGCUCGAGCCCGGGUAAGUGUAUGUAGUCUGCAUGCCGCCGGGCGCCAUGCCUGCAGGUCGACUCUAGAAAACAUG | -6.67 | -5.42 | < -1.89 | < -8.43 | – | – |
| GGCUAGAACUAGUGGAUCCCCCGGCGCCCGGCGGCUCGAGCCCGGGUAAGGUUCAAAAGUCUGCAUGCCGCCGGGCGCCAUGCCUGCAGGUCGACUCUAGAAAACAUG | -3.51 | -3.66 | -1.4 | – | – | – |
| GGCUAGAACUAGUGGAUCCCCCGGCGCCCGGCGGCUCGAGCCCGGGUAAGUUGAAGUCGUCUGCAUGCCGCCGGGCGCCAUGCCUGCAGGUCGACUCUAGAAAACAUG | -6.06 | -6.57 | < -1.9 | -8.4 | – | – |
| GGCUAGAACUAGUGGAUCCCCCGGCGCCCGGCGGCUCGAGCCCGGGUAAGUUGCAGACGUCUGCAUGCCGCCGGGCGCCAUGCCUGCAGGUCGACUCUAGAAAACAUG | < -5.91 | -5.37 | – | – | -3.41 | – |
| GGCUAGAACUAGUGGAUCCCCCGGCGCCCGGCGGCUCGAGCCCGGGUAAGGCGACAAAGUCUGCAUGCCGCCGGGCGCCAUGCCUGCAGGUCGACUCUAGAAAACAUG | -4.87 | – | – | – | – | -6.78 |
| GGCUAGAACUAGUGGAUCCCCCGGCGCCCGGCGGCUCGAGCCCGGGUAAGUGCUCCUCGUCUGCAUGCCGCCGGGCGCCAUGCCUGCAGGUCGACUCUAGAAAACAUG | -5.84 | – | – | – | – | -6.97 |
| GGCUAGAACUAGUGGAUCCCCCGGCGCCCGGCGGCUCGAGCCCGGGUAAGUUACCAUAGUCUGCAUGCCGCCGGGCGCCAUGCCUGCAGGUCGACUCUAGAAAACAUG | -5.78 | – | – | – | – | -5.97 |
